# From PubChem BioAssay AID1671190 (National Center for Advancing Translational Sciences (NCATS), 2021)
# Amino acid sequences for entries named in this document (tags omitted). A change or cut given only in a name is not applied to a line headed by its entry.
# UniProt P18054: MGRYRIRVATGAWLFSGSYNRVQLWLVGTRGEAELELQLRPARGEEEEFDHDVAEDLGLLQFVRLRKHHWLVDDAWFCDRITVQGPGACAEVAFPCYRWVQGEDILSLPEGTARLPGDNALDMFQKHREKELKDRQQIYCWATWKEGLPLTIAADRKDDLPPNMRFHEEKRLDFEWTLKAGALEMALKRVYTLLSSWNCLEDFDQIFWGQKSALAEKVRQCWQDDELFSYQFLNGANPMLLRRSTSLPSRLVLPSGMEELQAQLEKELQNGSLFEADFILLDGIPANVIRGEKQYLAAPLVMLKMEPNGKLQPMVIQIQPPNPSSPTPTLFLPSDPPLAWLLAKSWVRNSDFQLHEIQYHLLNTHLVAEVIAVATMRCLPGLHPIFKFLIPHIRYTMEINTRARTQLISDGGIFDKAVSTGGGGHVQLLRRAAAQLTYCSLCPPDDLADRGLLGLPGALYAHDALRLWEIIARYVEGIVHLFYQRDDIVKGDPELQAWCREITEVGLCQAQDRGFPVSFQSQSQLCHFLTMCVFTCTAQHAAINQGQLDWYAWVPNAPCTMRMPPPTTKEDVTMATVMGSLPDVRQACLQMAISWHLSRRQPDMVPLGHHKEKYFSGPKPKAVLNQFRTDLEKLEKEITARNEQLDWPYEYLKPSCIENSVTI
# About 6,100 (1.1%) of roughly 580,000 compounds were called active. This list was built around the results that the source calls inconclusive (neither active nor inactive); the mix of calls is not that of the screen. Calls come from the whole dose curve; as a rule, active = well fitted inhibition curve with a large enough effect; inconclusive = small, poorly fitted or top-dose-only effect, or another doubt; inactive = no such curve, though single readings can be large or run the other way. A potency beside an inconclusive call is a rough fit, not a confirmed value.
# Molecular target: Polyunsaturated fatty acid lipoxygenase ALOX12 (Homo sapiens) (UniProt P18054)
# Assay: Primary qHTS assay for inhibitors of human arachidonate 12S-lipoxygenase (ALOX12): Round 2
# Settings: purified 12hLO, xylenol orange hydroperoxide absorbance; series mostly up to 108 µM
# Method in brief: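 Purified human 12hLO at 150 nM in 25 mM Hepes, 0.01% Triton X-100, pH 7.0, preincubated 15 min at room temperature with compound. Reaction started with 40 uM arachidonic acid, 30 min at room temperature. Hydroperoxide measured by Fe-xylenol orange, 573/405 nm absorbance ratio.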
# Potency is the fitted concentration of half-maximal effect.
row,Compound,Potency
1,Cc1ccc(-n2cc(CN3CCN(C(=O)c4ncn[nH]4)CC3)c(-c3ccc(F)cc3)n2)cc1,inactive
2,CN(C)c1ccc(-c2nn3c(-c4ccc(Cl)cc4)nnc3s2)cc1,inactive
3,CC(=O)Nc1ccc(CN[C@@H]2CO[C@H](CNC(=O)C3CCCC3)[C@H]2O)cc1,inactive
4,c1ccc2c(c1)OCCc1c-2[nH]c2ccccc12,"inconclusive: 70.8 µM [inhibitor, partial curve, poor fit]"
5,CC[C@H]1CN(C(=O)c2ccnc(Cl)c2)CC[C@H]1CC(=O)O,"inconclusive: 8.91 µM [inhibitor, full curve, poor fit]"
6,C=CCNC(=O)c1cc(-c2ccc3ccccc3n2)nc2ccccc12,inactive
7,Cc1ccc(S(=O)(=O)NC2CCN(C(=O)Cc3ccc(F)cc3)CC2)cc1,"inconclusive: 7.94 µM [inhibitor, partial curve, poor fit]"
8,CN(C)CC(=O)N1CCN(C(=O)C=C(C2CC2)C2CC2)CC1,"inconclusive: 158 µM [inhibitor, single point]"
9,O=C(NC(=S)Nc1ccccc1N1CCCCC1)c1ccc(F)cc1,"inconclusive: 44.7 µM [inhibitor, partial curve, poor fit]"
10,COc1ccccc1CN1CCNC(=O)C1CC(=O)N(C)Cc1nc(C)cs1 (centres undefined),"inconclusive: 4.47 µM [inhibitor, partial curve, poor fit]"
11,Cc1nnsc1S(=O)c1ccc(Cl)cc1 (centres undefined),inactive
12,c1cc(CNc2ccc3c(c2)OCO3)ccn1,inactive
13,Cc1ccc(-c2cccc(NC(=O)C3C(C(=O)O)[C@@H]4C=C[C@H]3C4)c2)o1 (some centres undefined),"inconclusive: 89.1 µM [inhibitor, single point]"
14,CN(c1ccc(OCC(=O)Nc2ccc(S(N)(=O)=O)cc2)cc1)S(=O)(=O)c1ccc(F)cc1,inactive
15,Cc1ccc2nc(-c3ccc(NC(=O)COC(=O)c4ccc([N+](=O)[O-])o4)cc3)sc2c1,inactive
16,NC(=O)c1sc2cc(C(F)(F)F)cnc2c1-c1ccccc1,"inconclusive: 141 µM [inhibitor, single point]"
17,COc1cccc(-c2nc(SCc3cc(=O)n4c(C)csc4n3)n[nH]2)c1,"inconclusive: 50.1 µM [inhibitor, partial curve, poor fit]"
18,CSc1nc(C=Nc2ccccc2Cl)c(O)n1Cc1cccc(Cl)c1,"inconclusive: 35.5 µM [inhibitor, single point]"
19,COc1ccc(N=Cc2nc(-c3ccco3)oc2O)cc1,"inconclusive: 25.1 µM [inhibitor, single point]"
20,COc1ccc(SC[C@H](CC(C)C)N2CCN(CCc3ccccc3)CCC2=O)cc1,inactive
21,COc1ccccc1-n1c(-c2ccc(NS(C)(=O)=O)cc2)n[nH]c1=S,"inconclusive: 79.4 µM [inhibitor, partial curve, poor fit]"
22,CCCOc1ccccc1C1NC(=O)NC(C)=C1C(=O)OCc1ccccc1 (centres undefined),inactive

row,Compound,Potency
1,Cc1ccc(-c2sc(C(=O)Nc3ccc(Br)cc3)cc2CC(=O)O)cc1,"inconclusive: 56.2 µM [inhibitor, partial curve, poor fit]"
2,Cc1ccccc1C(=O)NC(=S)Nc1ccccc1C(=O)O,active: 44.7 µM
3,O=C(/C=C(O)/C=C/c1ccc(O)cc1)/C=C/c1ccc(O)cc1,active: 28.2 µM
4,O=C1Nc2ccccc2C12Nc1ccccc1-c1nc3ccccc3n12 (centres undefined),"inconclusive: 0.708 µM [inhibitor, partial curve, poor fit]"
5,O=C(NCC(c1ccco1)N1CCc2ccccc21)c1ccccc1Cl (centres undefined),"inconclusive: 39.8 µM [inhibitor, partial curve, poor fit]"
6,CN(C)C(CNc1oc(-c2ccc(Cl)cc2)nc1C#N)c1cccs1 (centres undefined),"inconclusive: 112 µM [inhibitor, single point]"
7,CN1C(=O)CC(Sc2ccccc2C(=O)O)C1=O (centres undefined),inactive
8,Cc1ccc(CNC(=O)CSc2ncc(S(=O)(=O)c3ccc(Br)cc3)c(=O)[nH]2)cc1,"inconclusive: 50.1 µM [inhibitor, partial curve, poor fit]"
9,COc1ccc(C)cc1Nc1n[n+](-c2ccccc2)c(-c2cccc(Cl)c2Cl)s1,"inconclusive: 50.1 µM [inhibitor, partial curve, poor fit]"
10,COC(=O)c1c(C)[nH]c(C(=O)C(C)OC(=O)c2cnc(C)cn2)c1C (centres undefined),"inconclusive: 25.1 µM [inhibitor, partial curve, poor fit]"
11,CCCOc1ccc(OCCCCNC(C)CC)cc1 (centres undefined),"inconclusive: 5.01 µM [inhibitor, full curve, poor fit]"
12,CCN(CC)C(=O)C(NC(=O)c1ccc(F)cc1)C1CCN(C(=O)C(C)C)CC1 (centres undefined),inactive
13,COc1ccc(C(=O)NCCn2c(C)cnc2C2CC2)cn1,inactive
14,Cc1ccc2c(c1)c1c3n2CCN(CC(O)CNC(C)C)C3CCC1 (centres undefined),"inconclusive: 50.1 µM [inhibitor, partial curve, poor fit]"
15,CCn1c(C)c(C2N3CC4(C)CN2CC(CC)(C3)C4=O)c2ccccc21 (centres undefined),"inconclusive: 141 µM [inhibitor, partial curve, poor fit]"
16,O=C(Nc1ccccc1Cl)c1csc(-c2cccnc2)n1,"inconclusive: 3.98 µM [inhibitor, partial curve, poor fit]"
17,CCCn1c(S(=O)(=O)O)nc2ccccc21,inactive
18,COc1ccc(-c2nc3cc(NC(=O)c4ccc(C)cc4)ccc3o2)cc1OC,inactive
19,COc1ccc(NS(=O)(=O)c2ccc3c(c2)C(C(C)C)C(=O)N3)cc1 (centres undefined),"inconclusive: 126 µM [inhibitor, single point]"
20,CS(=O)(=O)Nc1ccc(C2(C(=O)NCc3ccccc3Cl)CCCCC2)cc1,"inconclusive: 31.6 µM [inhibitor, partial curve]"
21,CCCNC(=O)N[C@H]1C=C[C@H](CC(=O)NC2CCCCC2)O[C@@H]1CO,"inconclusive: 89.1 µM [inhibitor, single point]"
22,Cc1ccc(C)c(NC(=O)COC(=O)Cn2cnc3c2c(=O)n(C)c(=O)n3C)c1,inactive

# Random excerpt: two entries already listed.
row,Compound,Potency
20,COc1ccc(SC[C@H](CC(C)C)N2CCN(CCc3ccccc3)CCC2=O)cc1,inactive
2,CN(C)c1ccc(-c2nn3c(-c4ccc(Cl)cc4)nnc3s2)cc1,inactive
